Data from the ROBIN nucleic acid binder screens, doi:10.1002/anie.202211358.

Targets (5′ to 3′):
T1: PreQ1 riboswitch RNA pseudoknot, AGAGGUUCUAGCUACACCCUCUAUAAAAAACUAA. From B. subtilis. About 170 hits among about 24,000 compounds.
T2: TPP riboswitch RNA three-way junction, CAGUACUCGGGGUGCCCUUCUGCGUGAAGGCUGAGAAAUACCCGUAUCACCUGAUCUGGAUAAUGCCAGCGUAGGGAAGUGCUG. About 160 hits among about 24,000 compounds.
T3: SAM-II riboswitch RNA pseudoknot, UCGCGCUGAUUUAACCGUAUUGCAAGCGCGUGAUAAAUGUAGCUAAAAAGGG. About 200 hits among about 21,000 compounds.

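Compounds were printed on reactive glass slides in duplicate spots, a dye-labelled oligonucleotide was laid over them, and the fluorescence left after washing was read. For the PreQ1, TPP and SAM-II riboswitches the laboratory earlier reported (doi:10.1038/s41467-019-09493-3) 1 µM RNA, 2 h, and a rule that included a mean Z-score above 3 (spot signal-to-noise against the whole library), a score well above that on a control array, and duplicate spots agreeing (coefficient of variation under 100). The data file gives only the calls; its cut-offs may differ, and compounds hitting several targets are kept. These are primary screening calls, not affinities; a compound without a hit may have attached poorly or may still bind in solution.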 Key: Y = hit, N = tested without a hit. The compounds are a random part of those screened. A target missing from an entry has no call listed here.

{"smiles": "CSCCC(O)C(=O)N1CCC2(CCC(=O)N(Cc3ccccn3)C2)CC1", "stereo": "stereo not shown", "T1": "N", "T2": "N", "T3": "N"}
{"smiles": "CSc1nccc(N2CCC(NCCSc3ncn[nH]3)CC2)n1", "T1": "N", "T2": "N", "T3": "N"}
{"smiles": "C=CCOc1nc(NCC)nc(N(C)C)n1", "T1": "N", "T2": "N", "T3": "N"}
{"smiles": "C#CCSc1nc(N)c(C#N)c(-c2ccc(O)cc2)c1C#N", "T1": "N", "T2": "N", "T3": "N"}
{"smiles": "CN(CCc1ccccc1)C1(C(=O)N[C@H]2CCCNC2)Cc2ccccc2C1", "T1": "N", "T2": "N", "T3": "N"}
{"smiles": "Cc1nn(C(=O)c2ccc(C(C)(C)C)cc2)c(N)c1-c1ccccc1", "T1": "N", "T2": "N", "T3": "N"}
{"smiles": "CCCc1n[nH]c2c1C1(CCN(C(=O)OCC)CC1)C(C#N)=C(N)O2", "T1": "N", "T2": "N", "T3": "N"}
{"smiles": "CCN1c2ccc(CNc3ccc(F)cc3)cc2C(C)=CC1(C)C", "T1": "N", "T2": "N", "T3": "N"}
{"smiles": "O=C(Nc1ccccc1CO)c1ccc(I)cc1", "T1": "N", "T2": "N", "T3": "N"}
{"smiles": "FC(F)(F)c1cccc(Nc2ccnc3ccc(Cl)cc23)c1", "T1": "N", "T2": "N", "T3": "N"}
{"smiles": "Cn1c(=O)c2c(nc(NCC3CCCO3)n2Cc2ccc(F)cc2)n(C)c1=O", "stereo": "stereo not shown", "T1": "N", "T2": "N", "T3": "N"}
{"smiles": "CCC(O)c1nc2ccccc2n1Cc1ccc(Cl)cc1", "stereo": "stereo not shown", "T1": "N", "T2": "N"}
{"smiles": "CCOc1ccccc1CNc1ncc(-c2cccc(Cl)c2)n1C", "T1": "N", "T2": "N", "T3": "N"}
{"smiles": "C=CCC1(CO)CCCN(c2cc(C)nc(N)n2)C1", "stereo": "stereo not shown", "T1": "N", "T2": "N", "T3": "N"}
{"smiles": "CC(C)Nc1nc(NCCO)nc(N2CCOCC2)n1", "T1": "N", "T2": "N", "T3": "N"}
{"smiles": "COc1cccc(Oc2nonc2N)c1", "T1": "N", "T2": "N", "T3": "N"}
{"smiles": "CN(C1CCCCC1O)S(=O)(=O)Cc1ccc(Cl)c(Cl)c1", "stereo": "stereo not shown", "T1": "N", "T2": "N", "T3": "N"}
{"smiles": "O=C(O)C1CCC(=O)N1C(=O)OCc1ccccc1", "stereo": "stereo not shown", "T1": "N", "T2": "N", "T3": "N"}
{"smiles": "CN(C)CCNc1c2c(c(C#N)c3nc4ccccc4n13)CCCC2", "T1": "N", "T2": "N", "T3": "N"}
{"smiles": "O=C(Cn1c(C2CC2)nc2ccccc21)NCc1cc2n(n1)CCNC2", "T1": "N", "T2": "N", "T3": "N"}
{"smiles": "COc1c(C)cc(N)cc1C", "T1": "N", "T2": "N", "T3": "N"}
{"smiles": "O=C(O)CNc1cccc(C(=O)N2C[C@H](O)[C@@H](N3CCCCC3)C2)c1", "T1": "N", "T2": "N", "T3": "N"}
{"smiles": "COc1cccc(CC2(CO)CCCN(c3ccnc(SC)n3)C2)c1", "stereo": "stereo not shown", "T1": "N", "T2": "N", "T3": "N"}
{"smiles": "COc1ccccc1CNc1ncccc1-c1nc(-c2ccccc2C)no1", "T1": "N", "T2": "N"}
{"smiles": "Cc1nc2ccccc2n1CC(O)COc1ccc(Cl)cc1", "stereo": "stereo not shown", "T1": "N", "T2": "N", "T3": "N"}
{"smiles": "NC1=C(c2nc3ccccc3[nH]2)C(=O)CN1C1CCCCCCC1", "T1": "N", "T2": "N"}
{"smiles": "N#Cc1cnn2c(NC3CCCCCC3)c(-c3ccc(Cl)cc3)[nH]c12", "T1": "N", "T2": "N"}
{"smiles": "CCN(CC)S(=O)(=O)c1ccc(Nc2nc(SC)nc3c2CCC3)cc1", "T1": "N", "T2": "N"}
{"smiles": "CCCC(O)c1nc2ccccc2n1CCOc1ccccc1C", "stereo": "stereo not shown", "T1": "N", "T2": "N"}

Repeated from the top, 2 entries:

| SMILES | T1 | T2 | T3 |
|---|---|---|---|
| `CSCCC(O)C(=O)N1CCC2(CCC(=O)N(Cc3ccccn3)C2)CC1` (stereo not shown) | N | N | N |
| `CSc1nccc(N2CCC(NCCSc3ncn[nH]3)CC2)n1` | N | N | N |